Measured values from patent publication US9796746B2, “Compounds useful for FRET and methods related thereto” (Roche Diagnostics Operations, Inc., priority 2013, dated 2017).

Test system: Glucose dehydrogenase
Test: Enzymatic reduction with glucose and Glucose dehydrogenase, fluorescence emission spectra (FRET)
Assay type: biochemical
Conditions: excitation wavelength 360 nm; after completion of the reaction; 0.1 M Potassium phosphate buffer pH 7.0, 25° C., 100 mM Glucose, 1 mM carbaNAD form, 4 μM Glucose dehydrogenase
Description: The spectra were recorded from 370 nm to 700 nm with an excitation wavelength of 360 nm.
N6-[N-(6-“Cy 3” aminohexyl)carbamoylmethyl] carbaNADH was generated in situ from N6-[N-(6-“Cy 3” aminohexyl)carbamoylmethyl] carbaNAD by an enzymatic reaction with glucose and a Glucose dehydrogenase (as described in WO 2010/094632).
The reaction was carried out in a total volume of 1.5 ml in a closed vial in 0.1 M Potassium phosphate buffer pH 7.0 at 25° C. with 200 mM Sodium Chloride, 100 mM Glucose, 1 mM N6-[N-(6-“Cy 3” aminohexyl)carbamoylmethyl] carbaNAD and 4 μM Glucose dehydrogenase. The fluorescence spectra from 370 nM to 700 nM were recorded with an excitation wavelength of 360 nm directly before reaction start and after completion of the reaction (see FIG. 1). The generated N6-[N-(6-Cy3 aminohexyl) carbamoylmethyl] carbaNADH can be detected by the formation of two peaks at about 460 nm and 565 nm. The peak at about 460 nm represents the fluorescence of carbaNADH itself (see Ketteler et al., Fluorescence Properties of Carba Nicotinamide Adenine Dinucleotide for Glucose Sensing, ChemPhysChem (2012), 13(5), 1302-1306), whereas the peak at 565 nm represents the result of FRET to Cy3.

With “N6-[N-(6-“Cy 3” aminohexyl)carbamoylmethyl] carbaNADH” the “fluorescence emission peak (fluorescence of carbaNADH itself)” value was “about 460 nm” and the “fluorescence emission peak (result of FRET to Cy3)” value was 565 nm.
